Measured values as given in patent US6344443.
Results are given in words; binding and its absence hold for the method and conditions named. Some results given as binding are weak or reduced against the parent protein; the word gives no strength. Where a sequence is shown, tags or fusion partners need not be part of it. Ends that are not written are not given here.

Sequences of proteins named here, by UniProt entry; tags and fusion partners are left off. Residues count along the entry.
UniProt P19438, residues 41-201: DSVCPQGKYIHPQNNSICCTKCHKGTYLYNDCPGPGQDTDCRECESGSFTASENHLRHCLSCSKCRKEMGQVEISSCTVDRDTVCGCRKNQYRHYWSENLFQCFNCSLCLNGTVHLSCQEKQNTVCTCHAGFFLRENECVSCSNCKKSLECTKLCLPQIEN
UniProt P20333, residues 23-257: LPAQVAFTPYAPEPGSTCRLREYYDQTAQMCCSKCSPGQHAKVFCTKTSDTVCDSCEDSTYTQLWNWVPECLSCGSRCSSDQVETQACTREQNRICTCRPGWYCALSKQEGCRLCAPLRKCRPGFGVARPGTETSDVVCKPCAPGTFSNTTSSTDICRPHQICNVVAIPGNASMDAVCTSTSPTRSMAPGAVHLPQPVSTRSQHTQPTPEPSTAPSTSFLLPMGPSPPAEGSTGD

Legend:
[1] = target: soluble type I TNF receptor (UniProt P19438); assay: phage display library screening on TNF receptors
[2] = target: soluble type II TNF receptor (UniProt P20333); assay: phage display library screening on TNF receptors

FSPLHTSTYRPS [Phe-Ser-Pro-Leu-His-Thr-Ser-Thr-Tyr-Arg-Pro-Ser (SEQ. ID NO. 4)]
binding [1]: binds | binding [2]: binds

TPKHLFL [Thr-Pro-Lys-His-Leu-Phe-Leu (SEQ. ID NO. 1)]
binding [1]: binds | binding [2]: binds

LLQPTMN [Leu-Leu-Gln-Pro-Thr-Met-Asn (SEQ. ID NO. 2)]
binding [1]: binds | binding [2]: binds

SVSVGMKPSPRP [Ser-Val-Ser-Val-Gly-Met-Lys-Pro-Ser-Pro-Arg-Pro (SEQ.ID NO. 3)]
binding [1]: binds | binding [2]: binds
